Results published in paper PMC8558867, “Development of BromoTag: A “Bump-and-Hole”–PROTAC System to Induce Potent, Rapid, and Selective Degradation of Tagged Target Proteins” (Journal of Medicinal Chemistry, 2021).

Test system: MV-4-11 cells
Assay: CellTiter-Glo 2.0 cell viability assay, MV-4-11
Assay type: cell-based
Conditions: Homo sapiens, MV4-11; MV-4-11, 24 Hours, mean ±S.E.M, N = 2; read-out: pEC50 (cell viability) (converted)

For `CN[C@@H]1C[C@H]2O[C@@](C)([C@@H]1OC)n1c3ccccc3c3c4c(c5c6ccccc6n2c5c31)C(=O)NC4` [Staurosporine], which EC50 is on record?
The EC50 was 6.31 nM.
